Measurements taken from publication PMC9609317, “Evaluation of Metabolism of a Defined Pesticide Mixture through Multiple In Vitro Liver Models” (Toxics, 2022).

Tests used:
[1] = system: induced pluripotent stem cell-derived hepatocytes (iHep) suspension; assay: In vitro hepatocyte clearance in iHep suspension, targeted LC-MS/MS and GC-MS/MS; type: in vitro ADME, human; conditions: rank of in vitro clearance, highest (1) to lowest (12), 1µM mixture
Experimental: (§1) Suspension assays using iHep were performed as previously detailed with slight modification. In brief, pre-differentiated iHep were suspended in iHep maintenance media and adjusted to the cell concentration of 1 × 10^6 cells/mL. A portion of the cell working stock was heated at 95 °C for five minutes to serve as negative control. Five hundred microliters of the chemical stock (20 chemicals, 2 or 10 µM each) were spiked in 500 µL of the cell working stock or heat-inactivated cell control to a final cell density of 5 × 10^5 cells/mL. Fifty microliters were removed subsequently at 0, 60, 120, and 240 min to individual 1.5 mL Eppendorf tubes for further sample extraction detailed below. Each experimental condition was replicated three times.
Sample extraction procedures and chromatographic conditions were previously reported in [34]. In brief, each sample (50 µL) was spiked with 10 µL of 10 µM internal standards, mixed with 100 µL of chilled acetonitrile, and then centrifuged at 10,000× g for 5 min. The supernatant was dried under vacuum using SpeedVac (Savant SPD1010, Beckman Coulter, Brea, CA, USA) and reconstituted with 50 µL of aqueous mobile phase prior to analyses. LC-MS/MS analysis was performed using 1290 Infinity II LC and 6470 triple quadrupole mass spectrometer (both instruments from Agilent Technologies, Santa Clara, CA, USA). Sample extract (10 µL) was chromatographed on a ZORBAX SSHD Eclipse Plus C18 column (3.0 × 50 mm, 1.8 µm, Cat No.: 959757-302; Agilent Technologies) with a guard column (2.1 × 5 mm, 1.8 µm, Cat No.: 821725-901; Agilent Technologies), and ionized using electrospray ionization. Analytical response was acquired in both positive and negative modes.
For positive ion compounds, mobile phases consisted of 0.1% formic acid in water (A) and 0.1% formic acid in methanol (B) using the following gradient: 2% B held for 1 min, B increased to 80% by 3 min, B increased to 95% by 4 min, B decreased to 2% by 5 min and held for 3 min for a total run time of 8 min per sample at a flow rate of 0.4 mL/min. For negative ion compounds, the LC gradient and flow rate were the same as in positive mode, except that mobile phase A was water and mobile phase B was acetonitrile.
Fifty microliters of media sample were spiked with 10 µL of 10 µM internal standards, mixed with 50 µL of methanol and 200 µL of pentane: diethyl ether (1:1 v/v), vortexed briefly, and then centrifuged at 600× g for 5 min. Organic layer supernatants were transferred to a 2 mL amber vial and concentrated under nitrogen prior to GC analysis. Detection of analytes was achieved using a 7890B GC and 7010B triple quadrupole mass spectrometer (both from Agilent Technologies). Samples were injected (1 µL) in splitless mode. Analytes were separated with a VF-5ms GC column (60 m × 250 µm × 0.25 µm, Cat No.: CP8960; Agilent Technologies) and ionized using electron ionization. The column head pressure was set at 21.5 psi (148,237 Pa) with a constant flow rate at 1.2 mL/min using helium gas. Initial column temperature was held at 70 °C for 5 min, increased to 150 °C at 50 °C/min, ramped to 280 °C at 4 °C/min, and then held […]. The total run time was 42.1 min. The injector temperature was set at 250 °C. The ion source and auxiliary transfer line temperatures were 300 °C. Electron multiplier voltage was set at 1884 V. Ultra-high purity nitrogen gas was used as the collision gas for all MS/MS experiments, and collision gas pressure was set at 16.8 psi (115,832 Pa).
In vitro hepatocyte clearance (Clin vitro) of each chemical was estimated by substrate depletion approach assuming first-order kinetics for compound elimination: Clin vitro = kV/N, where k = first-order elimination rate constant, V = incubation volume, and N = number of cells in the incubation. […]

[2] = system: induced pluripotent stem cell-derived hepatocytes (iHep) suspension; assay: iHep suspension, nontargeted IMS-MS analysis (clearance, metabolite formation, mass balance); type: in vitro ADME, human; conditions: rank of in vitro clearance, highest (1) to lowest (12), 1µM mixture
Experimental: as §1
All nontargeted analyses were performed using a 6560 IMS-QTOF MS (Agilent Technologies) as detailed previously. All individual standards for pesticide parent compounds (n = 20) and known metabolites (n = 10) were directly injected in triplicate into the electrospray ionization (ESI) source (positive and negative mode) and atmospheric pressure photo-ionization (APPI, negative mode only) to obtain collision cross section (CCS) and mass-to-charge ratio (m/z) values. Blanks were injected between standards to reduce the likelihood of carryover. For sample analyses, ESI was chosen as the optimal source to detect analytes in either positive or negative mode. During IMS-MS analyses, ions were passed through the inlet glass capillary, focused by a high-pressure ion funnel, and accumulated in an ion funnel trap. Next, ions were pulsed into the 78.24 cm-long IMS drift tube filled with nitrogen gas at a pressure of approximately 3.95 torr (527 Pa). Ions exiting the drift tube were refocused by a rear ion funnel prior to quadrupole time-of-flight (QTOF) MS detection. Detailed instrumental settings in ESI mode can be found in Table S1. Prior to instrumental analysis, the IMS-MS was tuned and a mass calibration was performed using Agilent Tune Mix from the manufacturer (Cat No.: G2421-60001, Agilent Technologies).
In vitro hepatocyte clearance (Clin vitro) of each chemical was estimated by substrate depletion approach assuming first-order kinetics for compound elimination: Clin vitro = kV/N, where k = first-order elimination rate constant, V = incubation volume, and N = number of cells in the incubation. Clin vitro was further scaled up to the intrinsic hepatocyte clearance (Clint) according to the equation [38]:Clint = Clin vitro × HPGL × Vl(1) where HPGL = hepatocytes per gram liver (137 × 10^6 cells/g) and Vl = volume of the whole liver (1820 g).

Row | Compound | Rank, Targeted Analyses (GC- or LC-MS/MS) [1] | Rank, Nontargeted Analyses (IMS-MS) [2]
1 | O=[N+]([O-])c1ccc(O)c([N+](=O)[O-])c1 [2,4-Dinitrophenol] | 5 | 2
2 | ClC1=C(Cl)C2(Cl)C3C4C=CC(C4)C3C1(Cl)C2(Cl)Cl (stereo not drawn) [Aldrin] | 9 | 7
3 | COP(=S)(OC)SCn1nnc2ccccc2c1=O [Azinphos-methyl] | 6 | 1
4 | CCOP(=S)(OCC)Oc1nc(Cl)c(Cl)cc1Cl [Chlorpyrifos] | 2 | 3
5 | Clc1ccc(C(c2ccc(Cl)cc2)C(Cl)Cl)cc1 [DDD-p,p', DDD-p,p’] | 10 | 7
6 | CCOP(=S)(OCC)Oc1cc(C)nc(C(C)C)n1 [Diazinon] | 1 | 6
7 | ClC1=C(Cl)[C@]2(Cl)[C@@H]3[C@@H]4C[C@@H]([C@H]5O[C@@H]45)[C@@H]3[C@@]1(Cl)C2(Cl)Cl [Dieldrin] | 12 | 7
8 | CCOP(=S)(OCC)SCCSCC [Disulfoton] | 4 | 4
9 | O=S1OC[C@@H]2[C@H](CO1)[C@]1(Cl)C(Cl)=C(Cl)[C@@]2(Cl)C1(Cl)Cl (stereo partly drawn) [Endosulfan I] | 7 | 7
10 | CCOP(=S)(OCC)SCSP(=S)(OCC)OCC [Ethion] | 3 | 5
11 | ClC1=C(Cl)[C@]2(Cl)[C@@H]3[C@@H](Cl)[C@H]4O[C@H]4[C@@H]3[C@@]1(Cl)C2(Cl)Cl [Heptachlor Epox. B, Heptachlor epoxide B] | 8 | 7
12 | CCCN(CCC)c1c([N+](=O)[O-])cc(C(F)(F)F)cc1[N+](=O)[O-] [Trifluralin] | 10 | 7
